Results deposited as PubChem BioAssay AID1259308 (NCATS, 2017)

- Test: 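Genes whose loss raises luciferase production in HEK293 cells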 (primary screen)
- Cells: human HEK293 embryonic kidney cells stably expressing firefly luciferase (HEK-CMV-Luc2-Hygro)
- Knock-down reagent: single siRNA against human genes, 0.8 pmol siRNA per well
- Duration: 72 h
- Detection: 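Luciferase light (ONE-Glo) measured on one replicate plate set and viability (CellTiter-Glo) on the other, scaled to a negative control siRNA, with robust z-scores and luciferase per cell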
- Direction: total luciferase, z-score and total luciferase, % of control: higher = more reporter protein produced; luciferase per cell, z-score: higher = more reporter output per viable cell; viable cells, % of control: higher = more viable cells
- Hit rule: 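An siRNA counts as active if its total luciferase robust z-score exceeds 3; genes with two or more such siRNAs out of three were retested with fresh siRNAs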
- Calls: active = raised luciferase; inactive = no rise
Shown is a random part of about 59,000 reagents tested. About 1,510 of them (2.6%) count as active. 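Calls use total luciferase alone and ignore viability, so some active siRNAs may act by altering cell number.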 Unmarked entries are inactive. The numbers tell different reagents against one gene apart.

target | reagent | total luciferase, z-score | total luciferase, % of control | luciferase per cell, z-score | viable cells, % of control
SHISA7 (GeneID 729956) | 1 | 0.413 | 90.1 | 0.748 | 82.7
SHISA7 (GeneID 729956) | 2 | 0.979 | 101 | 1.2 | 82.6
SHISA7 (GeneID 729956) | 3 | 0.872 | 99.2 | 1.4 | 76.7
SPATA31F2P (GeneID 389715) | 1 | 0.0827 | 83.5 | 0.352 | 85.1
SPATA31F2P (GeneID 389715) | 2 | -0.943 | 63.1 | 0.818 | 56.9
SPATA31F2P (GeneID 389715) | 3 | 0.542 | 92.7 | 0.59 | 88.7
SRP68 (GeneID 6730) | 1 | -0.736 | 67.3 | -0.397 | 83.4
SRP68 (GeneID 6730) | 2 | 1.22 | 106 | -0.138 | 123
SRP68 (GeneID 6730) | 3 | -0.255 | 76.8 | -0.147 | 89.2
PAPOLA-DT (GeneID 730202) | 1 | -0.326 | 75.4 | 0.0962 | 82.2
PAPOLA-DT (GeneID 730202) | 2 | 0.799 | 97.8 | 1.87 | 66.8
PAPOLA-DT (GeneID 730202) | 3 | 0.435 | 90.5 | 0.811 | 81.7
CLDND2 (GeneID 125875) | 1 | 0.806 | 97.9 | 0.13 | 106
CLDND2 (GeneID 125875) | 2 | -2.54 | 31.4 | -2.92 | 75.7
CLDND2 (GeneID 125875) | 3 | 2.26 | 127 | 2.5 | 73.5
LINC00898 (GeneID 400932) | 1 | 0.876 | 99.3 | 1.32 | 78.4
LINC00898 (GeneID 400932) | 2 | -0.21 | 77.7 | -0.801 | 107
LINC00898 (GeneID 400932) | 3 | -0.426 | 73.4 | 0.22 | 77.4
NDUFV3 (GeneID 4731) | 1 | -0.712 | 67.7 | 0.163 | 72.5
NDUFV3 (GeneID 4731) | 2 | -0.543 | 71.1 | -0.657 | 94.4
NDUFV3 (GeneID 4731) | 3 | -0.468 | 72.6 | -0.402 | 90.2
CREG2 (GeneID 200407) | 1 | -0.821 | 65.6 | -0.481 | 83.2
CREG2 (GeneID 200407) | 2 | -0.0901 | 80.1 | 0.00603 | 89.4
CREG2 (GeneID 200407) | 3 | 0.721 | 96.2 | 0.778 | 87.6
METTL14 (GeneID 57721) | 1 | -0.674 | 68.5 | -0.356 | 84
METTL14 (GeneID 57721) | 2 | 0.669 | 95.2 | 0.566 | 91.6
METTL14 (GeneID 57721) | 3 | -1.14 | 59.3 | -1.47 | 97.6

As entered above:
Entry for NDUFV3 (GeneID 4731) #1 under “viable cells, % of control”: 72.5
Entry of SPATA31F2P (GeneID 389715) #3 under “viable cells, % of control”: 88.7
LINC00898 (GeneID 400932) #3, viable cells, % of control → 77.4
For “total luciferase, z-score”, PAPOLA-DT (GeneID 730202) #2 is entered as 0.799
Result of PAPOLA-DT (GeneID 730202) #1 in “total luciferase, z-score”: -0.326
Entry of SRP68 (GeneID 6730) #2 under “luciferase per cell, z-score”: -0.138

The results go on.
target | reagent | total luciferase, z-score | total luciferase, % of control | luciferase per cell, z-score | viable cells, % of control
CD55 (GeneID 1604) | 1 | -0.0153 | 81.6 | -0.612 | 107
CD55 (GeneID 1604) | 2 | -0.889 | 64.2 | -0.956 | 92.3
CD55 (GeneID 1604) | 3 | -0.196 | 78 | 0.118 | 84.5
PQBP1 (GeneID 10084) | 1 | 0.564 | 93.1 | 1.13 | 77.4
PQBP1 (GeneID 10084) | 2 | 0.409 | 90 | 2.24 | 55.8
PQBP1 (GeneID 10084) | 3 | 2.24 | 126 | 2.8 | 67.6
HS3ST4 (GeneID 9951) | 1 | 1.18 | 105 | 1.7 | 75.3
HS3ST4 (GeneID 9951) | 2 | -0.432 | 73.3 | -0.511 | 93.7
HS3ST4 (GeneID 9951) | 3 | -0.556 | 70.8 | -0.133 | 82
NDUFV2 (GeneID 4729) | 1 | -0.158 | 78.7 | 0.563 | 75.9
NDUFV2 (GeneID 4729) | 2 | -0.0742 | 80.4 | -0.0877 | 92
NDUFV2 (GeneID 4729) | 3 | 2.08 | 123 | 2.38 | 73.7
HTR7 (GeneID 3363) | 1 | 0.774 | 97.3 | 1.25 | 78.2
HTR7 (GeneID 3363) | 2 | 1.44 | 111 | 1.68 | 79.3
HTR7 (GeneID 3363) | 3 | -0.287 | 76.2 | -0.926 | 109
ERN2 (GeneID 10595) | 1 | -0.436 | 73.2 | -0.356 | 89.8
ERN2 (GeneID 10595) | 2 | -1.07 | 60.5 | -0.835 | 84.3
ERN2 (GeneID 10595) | 3 | 0.0427 | 82.7 | -0.3 | 100
C2orf92 (GeneID 728537) | 1 | 0.284 | 87.5 | -0.0106 | 98.1
C2orf92 (GeneID 728537) | 2 | -0.909 | 63.8 | 0.442 | 63.5
C2orf92 (GeneID 728537) | 3 | -1.17 | 58.6 | -0.274 | 70.3
MYBL1 (GeneID 4603) | 1 | 0.521 | 92.3 | 1 | 79.2
MYBL1 (GeneID 4603) | 2 | -0.218 | 77.6 | -0.00049 | 86.7
MYBL1 (GeneID 4603) | 3 | -1.04 | 61.2 | -0.222 | 72.6
MYBL1 (GeneID 4603) | 4 | -2.24 | 37.2 | -1.94 | 69.3
MYBL1 (GeneID 4603) | 5 | 0.105 | 84 | -0.719 | 113
MYBL1 (GeneID 4603) | 6 | 1.31 | 108 | 1.07 | 90.9
RBM17 (GeneID 84991) | 1 | 1.14 | 105 | 1.86 | 71.5
RBM17 (GeneID 84991) | 2 | 0.0559 | 83 | 1.13 | 68.9
RBM17 (GeneID 84991) | 3 | -0.225 | 77.4 | -0.384 | 95.7
